The subject of the assay is Lewis lung carcinoma i.m., BDF1 mice, T/C %. Briefly: NCI In Vivo Anticancer Drug Screen. Data for tumor model Lewis Lung Carcinoma (intramuscular) in B6D2F1 (BDF1) mice. The essentials:
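Transplantable tumour model; readout survival or tumour size; value = treated (T) / vehicle control (C).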

The mark [1] stands for this setting: T/C endpoint: mean tumor weight (est.), dose: 1.0 mg/kg/injection, schedule: Q01DX011 (ip), vehicle: saline, higher T/C = larger tumour.
The mark [2] stands for this setting: T/C endpoint: median survival time, dose: 0.5 mg/kg/injection, schedule: Q01DX011 (ip), vehicle: saline, higher T/C = longer survival.
Setting [3] is: T/C endpoint: median survival time, dose: 1.0 mg/kg/injection, schedule: Q01DX011 (ip), vehicle: saline, higher T/C = longer survival.
The mark [4] stands for this setting: T/C endpoint: median survival time, dose: 2.0 mg/kg/injection, schedule: Q01DX011 (ip), vehicle: saline, higher T/C = longer survival.
Where [5] appears, read: T/C endpoint: median survival time, dose: 4.0 mg/kg/injection, schedule: Q01DX011 (ip), vehicle: saline, higher T/C = longer survival.
[6] abbreviates: T/C endpoint: median survival time, dose: 20.0 mg/kg/injection, schedule: Q01DX011 (ip), vehicle: saline, higher T/C = longer survival.
[7] abbreviates: T/C endpoint: median survival time, dose: 1.0 mg/kg/injection, schedule: Q01DX011 (ip), vehicle: other, higher T/C = longer survival.
[8] abbreviates: T/C endpoint: median survival time, dose: 50.0 mg/kg/injection, schedule: Q01DX011 (ip), vehicle: saline, higher T/C = longer survival.
The mark [9] stands for this setting: T/C endpoint: mean tumor weight (est.), dose: 40.0 mg/kg/injection, schedule: Q01DX011 (ip), vehicle: saline with Tween-80, higher T/C = larger tumour.
[10] abbreviates: T/C endpoint: median survival time, dose: 40.0 mg/kg/injection, schedule: Q01DX011 (ip), vehicle: saline with Tween-80, higher T/C = longer survival.
Setting [11] is: T/C endpoint: median survival time, dose: 80.0 mg/kg/injection, schedule: Q01DX011 (ip), vehicle: saline with Tween-80, higher T/C = longer survival.

The list is a part of this screen's results and no random one: it gathers tests that were run many times, whatever their T/C, doses with no T/C, and many T/C values between a quarter and a half above the control. Further doses and runs are listed elsewhere. T/C is the treated group as % of the vehicle group. Some doses have a count of surviving animals in place of a T/C: the source files T/C as zero there, which appears to mark a toxic dose or a test without result, not a measured value. Some survivor counts are full or nearly so, which does not show that the dose was tolerated: the source hardly ever lists a survival T/C far under the control, and the zero likely stands for such cases as well. Counts of survivors are from the toxicity check (mostly the fifth day) where no day follows; animals may have died later. Schedules are NCI's codes, taken here to give the interval after Q, in days (D) or hours (H), and the number of doses after X. Where survival is the endpoint, this PubChem deposit counts one and a half times the control or more as active, and values a quarter to a half above the control carry no call in these data; other NCI protocols may use other cut-offs.

`COC(=O)C[C@](O)(CCCC(C)(C)O)C(=O)O[C@@H]1C(OC)=C[C@]23CCCN2CCc2cc4c(cc2[C@H]13)OCO4`: the survivor count is, setting by setting: under setting [1], 4 of 8; (T/C endpoint: mean tumor weight (est.), dose: 2.0 mg/kg/injection, schedule: Q01DX011 (ip), vehicle: saline, higher T/C = larger tumour) 1 of 8; under setting [3], 4 of 8; under setting [4], 1 of 8; under setting [5], 0 of 8. Moreover, the T/C under setting [2] was 132 % of control.
`O=C1C=C(N2CC2)c2ccccc2C1=O`: the survivor count reads like this: (T/C endpoint: mean tumor weight (est.), dose: 20.0 mg/kg/injection, schedule: Q01DX011 (ip), vehicle: saline, higher T/C = larger tumour) 4 of 8; under setting [6], 4 of 8; (T/C endpoint: median survival time, dose: 40.0 mg/kg/injection, schedule: Q01DX011 (ip), vehicle: saline, higher T/C = longer survival) 0 of 8.
Regarding `CCCCNC(C)(C)COC(=O)/C=C/c1ccc(OCCCC)cc1`, the survivor count (T/C endpoint: median survival time, dose: 200.0 mg/kg/injection, schedule: Q01DX011 (ip), vehicle: saline with Tween-80, higher T/C = longer survival) is reported as 0 of 8.
Turning to `Cc1ccc2c(ccc(/C=C/c3ccc(O)c4ncccc34)[n+]2C)c1`, the survivor count is, setting by setting: (T/C endpoint: mean tumor weight, dose: 75.0 mg/kg/injection, schedule: Q01DX011 (ip), vehicle: saline with Tween-80, higher T/C = larger tumour) 2 of 8; (T/C endpoint: median survival time, dose: 75.0 mg/kg/injection, schedule: Q01DX011 (ip), vehicle: saline with Tween-80, higher T/C = longer survival) 2 of 8; (T/C endpoint: median survival time, dose: 150.0 mg/kg/injection, schedule: Q01DX011 (ip), vehicle: saline with Tween-80, higher T/C = longer survival) 0 of 8; (T/C endpoint: median survival time, dose: 300.0 mg/kg/injection, schedule: Q01DX011 (ip), vehicle: saline with Tween-80, higher T/C = longer survival) 0 of 8.
Consider `COC1=C(N)C(=O)c2nc(-c3nc(C(=O)O)c(C)c(-c4ccc(OC)c(OC)c4O)c3N)ccc2C1=O`, for which the survivor count runs as follows: (T/C endpoint: median survival time, dose: 0.1 mg/kg/injection, schedule: Q01DX009 (ip), vehicle: saline, higher T/C = longer survival) 10 of 10; (T/C endpoint: median survival time, dose: 0.12 mg/kg/injection, schedule: Q01DX011 (ip), vehicle: saline, higher T/C = longer survival) 8 of 8; (T/C endpoint: median survival time, dose: 0.2 mg/kg/injection, schedule: Q01DX009 (ip), vehicle: saline, higher T/C = longer survival) 10 of 10; (T/C endpoint: median survival time, dose: 0.2 mg/kg/injection, schedule: Q01DX011 (ip), vehicle: other, higher T/C = longer survival) 9 of 10; (T/C endpoint: median survival time, dose: 0.25 mg/kg/injection, schedule: Q01DX011 (ip), vehicle: saline, higher T/C = longer survival) 4 of 8; (T/C endpoint: median survival time, dose: 0.4 mg/kg/injection, schedule: Q01DX009 (ip), vehicle: saline, higher T/C = longer survival) 10 of 10. The survivor count was 10 of 10 (T/C endpoint: median survival time, dose: 0.4 mg/kg/injection, schedule: Q01DX011 (ip), vehicle: other, higher T/C = longer survival); 10 of 10 (T/C endpoint: median survival time, dose: 0.5 mg/kg/injection, schedule: Q01DX009 (ip), vehicle: saline, higher T/C = longer survival); 10 of 10 (T/C endpoint: median survival time, dose: 0.5 mg/kg/injection, schedule: Q01DX011 (ip), vehicle: other, higher T/C = longer survival); 10 of 10 (T/C endpoint: median survival time, dose: 0.8 mg/kg/injection, schedule: Q01DX009 (ip), vehicle: saline, higher T/C = longer survival); 9 of 10 (T/C endpoint: median survival time, dose: 0.8 mg/kg/injection, schedule: Q01DX011 (ip), vehicle: other, higher T/C = longer survival); 8 of 10 (T/C endpoint: median survival time, dose: 1.0 mg/kg/injection, schedule: Q01DX009 (ip), vehicle: saline, higher T/C = longer survival). The survivor count runs as follows: under setting [7], 10 of 10; (T/C endpoint: median survival time, dose: 2.0 mg/kg/injection, schedule: Q01DX009 (ip), vehicle: saline, higher T/C = longer survival) 4 of 10; (T/C endpoint: median survival time, dose: 2.0 mg/kg/injection, schedule: Q01DX011 (ip), vehicle: other, higher T/C = longer survival) 10 of 10; (T/C endpoint: median survival time, dose: 4.0 mg/kg/injection, schedule: Q01DX009 (ip), vehicle: saline, higher T/C = longer survival) 0 of 10; (T/C endpoint: median survival time, dose: 4.0 mg/kg/injection, schedule: Q01DX011 (ip), vehicle: other, higher T/C = longer survival) 10 of 10; (T/C endpoint: median tumor weight (est.), dose: 0.25 mg/kg/injection, schedule: Q01DX011 (ip), vehicle: saline, higher T/C = larger tumour) 4 of 8.
For the molecule `CS(=O)(=O)OCCC(=O)N1CCN(C(=O)CCOS(C)(=O)=O)CC1`, the survivor count is reported as 5 of 8 (T/C endpoint: mean tumor weight, dose: 100.0 mg/kg/injection, schedule: Q01DX011 (ip), vehicle: saline, higher T/C = larger tumour); 1 of 8 (T/C endpoint: mean tumor weight, dose: 200.0 mg/kg/injection, schedule: Q01DX011 (ip), vehicle: saline, higher T/C = larger tumour); 4 of 8 (T/C endpoint: median survival time, dose: 50.0 mg/kg/injection, schedule: Q01DX011 (ip), vehicle: Klucel (hydroxypropylcellulose) (HPC), higher T/C = longer survival); 7 of 8 under setting [8]; 6 of 8 (T/C endpoint: median survival time, dose: 100.0 mg/kg/injection, schedule: Q01DX011 (ip), vehicle: Klucel (hydroxypropylcellulose) (HPC), higher T/C = longer survival); 5 of 8 (T/C endpoint: median survival time, dose: 100.0 mg/kg/injection, schedule: Q01DX011 (ip), vehicle: saline, higher T/C = longer survival). Besides, the survivor count is given as 0 of 8 (T/C endpoint: median survival time, dose: 200.0 mg/kg/injection, schedule: Q01DX011 (ip), vehicle: Klucel (hydroxypropylcellulose) (HPC), higher T/C = longer survival); 1 of 8 (T/C endpoint: median survival time, dose: 200.0 mg/kg/injection, schedule: Q01DX011 (ip), vehicle: saline, higher T/C = longer survival); 0 of 8 (T/C endpoint: median survival time, dose: 400.0 mg/kg/injection, schedule: Q01DX011 (ip), vehicle: Klucel (hydroxypropylcellulose) (HPC), higher T/C = longer survival).
In the case of `CC(=O)OC1C(=O)C(O)C(C)OC1O[C@@H]1C[C@@]2(C)[C@@H]3CC=C4[C@@H](C[C@H](O)C(=O)C4(C)C)[C@]3(C)C(=O)C[C@]2(C)[C@H]1[C@@](C)(O)C(=O)/C=C/C(C)(C)O` (stereo partly specified), the survivor count is on record as 1 of 8 (T/C endpoint: mean tumor weight, dose: 4.0 mg/kg/injection, schedule: Q01DX011 (ip), vehicle: saline, higher T/C = larger tumour) and 1 of 8 under setting [5].
On to `O=c1[nH]cc(N(CCCl)CCCl)c(=O)[nH]1`, for which the survivor count is, setting by setting: under setting [7], 5 of 8; under setting [3], 6 of 8; under setting [4], 1 of 8; under setting [5], 0 of 8.
Take `Cc1c(N)nc(C(CC(N)=O)NCC(N)C(N)=O)nc1C(=O)NC(C(=O)NC(C)C(O)C(C)C(=O)NC(C(=O)NCCc1nc(-c2nc(C(=O)NCCCCN=C(N)N)cs2)cs1)C(C)O)C(OC1OC(CO)C(O)C(O)C1OC1OC(CO)C(O)C(OC(N)=O)C1O)c1cnc[nH]1` (stereo unspecified): the T/C (T/C endpoint: median survival time, dose: 2.3 mg/kg/injection, schedule: Q01DX011 (ip), vehicle: saline, higher T/C = longer survival) is 133 % of control. For the same molecule, under setting [8], the survivor count is on record as 5 of 8.
Consider `CCCCCCCCCCCCCC[n+]1ccccc1`, for which the survivor count reads like this: (T/C endpoint: mean tumor weight (est.), dose: 0.5 mg/kg/injection, schedule: Q01DX011 (ip), vehicle: saline, higher T/C = larger tumour) 3 of 8; under setting [1], 1 of 8; under setting [2], 3 of 8; under setting [3], 1 of 8.
Consider `O=C(CBr)OCCOc1ccccc1`, for which the survivor count reads like this: under setting [9], 3 of 8; under setting [10], 3 of 8; under setting [11], 0 of 8.
As to `Cc1ccc2c(C)c3c(ccc4ccccc43)c[n+]2c1`, the survivor count by setting is: (T/C endpoint: mean tumor weight (est.), dose: 10.0 mg/kg/injection, schedule: Q01DX011 (ip), vehicle: saline, higher T/C = larger tumour) 1 of 8; (T/C endpoint: median survival time, dose: 10.0 mg/kg/injection, schedule: Q01DX011 (ip), vehicle: saline, higher T/C = longer survival) 1 of 8; under setting [6], 0 of 8.
With `CSc1ncnc2c1ncn2C1OC(CO)C(O)C1O` (stereo unspecified), the survivor count is reported as 4 of 8 (T/C endpoint: mean tumor weight, dose: 15.0 mg/kg/injection, schedule: Q01DX011 (ip), vehicle: saline, higher T/C = larger tumour); 4 of 8 (T/C endpoint: median survival time, dose: 15.0 mg/kg/injection, schedule: Q01DX011 (ip), vehicle: saline, higher T/C = longer survival); 0 of 8 (T/C endpoint: median survival time, dose: 30.0 mg/kg/injection, schedule: Q01DX011 (ip), vehicle: saline, higher T/C = longer survival); 0 of 8 (T/C endpoint: median survival time, dose: 60.0 mg/kg/injection, schedule: Q01DX011 (ip), vehicle: saline, higher T/C = longer survival).
Turning to `CC1([CH2][Hg][I])CS(=O)(=O)CC(C)([CH2][Hg][I])O1` (stereo unspecified), the survivor count runs as follows: under setting [9], 4 of 8; under setting [10], 4 of 8; under setting [11], 0 of 8.

Values taken from PubChem BioAssay AID272 (DTP/NCI, 2004).
